Measurements reported in PubChem BioAssay AID602196 (INSERM, 2012).
Here is an unselected part of about 23,000 deposited reagents. 455 of all reagents (2%) were called active. 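Active includes both protection and sensitisation; some change values fall well beyond the stated -50 to +50 range.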 Not all columns of the deposit are shown. Not stated in the record: the amount of reagent.

Aim: 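Genes whose knock-down alters cisplatin killing of lung cancer cells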
Cells: human A549 lung cancer cells
Knock-down reagent: siRNA pair against human genes
Timing: 48 h transfection before cisplatin; time from cisplatin to read-out not stated
Challenge: cisplatin at a dose killing half of control-siRNA cells; exact dose and duration not given
Read-out: 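Cisplatin cell death as a shift from the 50% death seen with control siRNA; siRNAs toxic or growth-blocking alone scored 0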
Reading the numbers: two-siRNA summed score (-2 to +2): higher = both siRNAs protect from cisplatin killing; -2 means both sensitise
Active means: 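Each siRNA scores 0 if harmful alone by LDH or WST-1, otherwise +1 if it reduces and -1 if it increases cisplatin killing; a gene is active when both siRNAs agree (sum +2 or -2)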
Meaning of the calls: active = both siRNAs shift cisplatin killing the same way; inactive = no consistent shift, or siRNA harmful alone

{"target gene":"NUBP1","two-siRNA summed score (-2 to +2)":0,"call":"inactive"}
{"target gene":"DUX1","two-siRNA summed score (-2 to +2)":-1,"call":"inactive"}
{"target gene":"ATP6V1E2","two-siRNA summed score (-2 to +2)":0,"call":"inactive"}
{"target gene":"PSRC1","two-siRNA summed score (-2 to +2)":1,"call":"inactive"}
{"target gene":"IGSF1","two-siRNA summed score (-2 to +2)":0,"call":"inactive"}
{"target gene":"TOPBP1","two-siRNA summed score (-2 to +2)":0,"call":"inactive"}
{"target gene":"GOSR1","two-siRNA summed score (-2 to +2)":0,"call":"inactive"}
{"target gene":"RCAN2","two-siRNA summed score (-2 to +2)":0,"call":"inactive"}
{"target gene":"CNBP","two-siRNA summed score (-2 to +2)":0,"call":"inactive"}
{"target gene":"CYREN","two-siRNA summed score (-2 to +2)":0,"call":"inactive"}
{"target gene":"PSG5","two-siRNA summed score (-2 to +2)":0,"call":"inactive"}
{"target gene":"FZR1","two-siRNA summed score (-2 to +2)":0,"call":"inactive"}
{"target gene":"ACP4","two-siRNA summed score (-2 to +2)":0,"call":"inactive"}
{"target gene":"DOLK","two-siRNA summed score (-2 to +2)":0,"call":"inactive"}
{"target gene":"RAB27B","two-siRNA summed score (-2 to +2)":0,"call":"inactive"}

Continued; the last 4 above are carried over.
{"target gene":"FZR1","two-siRNA summed score (-2 to +2)":0,"call":"inactive"}
{"target gene":"ACP4","two-siRNA summed score (-2 to +2)":0,"call":"inactive"}
{"target gene":"DOLK","two-siRNA summed score (-2 to +2)":0,"call":"inactive"}
{"target gene":"RAB27B","two-siRNA summed score (-2 to +2)":0,"call":"inactive"}
{"target gene":"CEP131","two-siRNA summed score (-2 to +2)":0,"call":"inactive"}
{"target gene":"FLNA","two-siRNA summed score (-2 to +2)":0,"call":"inactive"}
{"target gene":"MKKS","two-siRNA summed score (-2 to +2)":0,"call":"inactive"}
{"target gene":"ENDOU","two-siRNA summed score (-2 to +2)":0,"call":"inactive"}
{"target gene":"PCDHGB5","two-siRNA summed score (-2 to +2)":0,"call":"inactive"}
{"target gene":"NDUFA10","two-siRNA summed score (-2 to +2)":0,"call":"inactive"}
{"target gene":"EPO","two-siRNA summed score (-2 to +2)":0,"call":"inactive"}
{"target gene":"LINC00857","two-siRNA summed score (-2 to +2)":0,"call":"inactive"}
{"target gene":"FUT5","two-siRNA summed score (-2 to +2)":0,"call":"inactive"}
{"target gene":"LINC00908","two-siRNA summed score (-2 to +2)":0,"call":"inactive"}
{"target gene":"RGS13","two-siRNA summed score (-2 to +2)":-1,"call":"inactive"}
{"target gene":"LOC440703","two-siRNA summed score (-2 to +2)":1,"call":"inactive"}
{"target gene":"GRK2","two-siRNA summed score (-2 to +2)":0,"call":"inactive"}
{"target gene":"RAB23","two-siRNA summed score (-2 to +2)":0,"call":"inactive"}
{"target gene":"FAM240C","two-siRNA summed score (-2 to +2)":1,"call":"inactive"}
{"target gene":"SAMHD1","two-siRNA summed score (-2 to +2)":0,"call":"inactive"}
{"target gene":"LOC441381","two-siRNA summed score (-2 to +2)":0,"call":"inactive"}
{"target gene":"ARSD","two-siRNA summed score (-2 to +2)":1,"call":"inactive"}
{"target gene":"LOC441567","two-siRNA summed score (-2 to +2)":0,"call":"inactive"}
{"target gene":"GM2A","two-siRNA summed score (-2 to +2)":0,"call":"inactive"}
{"target gene":"CFAP68","two-siRNA summed score (-2 to +2)":0,"call":"inactive"}
{"target gene":"SNAPIN","two-siRNA summed score (-2 to +2)":0,"call":"inactive"}
{"target gene":"OR4K5","two-siRNA summed score (-2 to +2)":-1,"call":"inactive"}
{"target gene":"ZNF8","two-siRNA summed score (-2 to +2)":0,"call":"inactive"}
{"target gene":"LOC341651","two-siRNA summed score (-2 to +2)":0,"call":"inactive"}
